Our source for the log2 fold change values is the supplement of paper PMC10849652.

Chains of the proteins cited; added tags and fusions are not shown. Lines headed by an entry give the natural chain unless they say otherwise; changes in a name come on top.
UniProt Q92913: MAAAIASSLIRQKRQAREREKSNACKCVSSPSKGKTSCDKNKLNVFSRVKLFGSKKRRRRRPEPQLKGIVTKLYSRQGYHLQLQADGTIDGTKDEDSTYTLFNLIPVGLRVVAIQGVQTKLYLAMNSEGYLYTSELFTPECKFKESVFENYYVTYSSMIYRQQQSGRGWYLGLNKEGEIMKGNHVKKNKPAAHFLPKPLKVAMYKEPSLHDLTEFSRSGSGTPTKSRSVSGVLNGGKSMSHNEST
UniProt Q96HJ9: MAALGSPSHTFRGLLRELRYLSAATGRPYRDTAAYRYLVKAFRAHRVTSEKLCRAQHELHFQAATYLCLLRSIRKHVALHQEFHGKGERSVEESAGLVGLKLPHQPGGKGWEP
UniProt O43427: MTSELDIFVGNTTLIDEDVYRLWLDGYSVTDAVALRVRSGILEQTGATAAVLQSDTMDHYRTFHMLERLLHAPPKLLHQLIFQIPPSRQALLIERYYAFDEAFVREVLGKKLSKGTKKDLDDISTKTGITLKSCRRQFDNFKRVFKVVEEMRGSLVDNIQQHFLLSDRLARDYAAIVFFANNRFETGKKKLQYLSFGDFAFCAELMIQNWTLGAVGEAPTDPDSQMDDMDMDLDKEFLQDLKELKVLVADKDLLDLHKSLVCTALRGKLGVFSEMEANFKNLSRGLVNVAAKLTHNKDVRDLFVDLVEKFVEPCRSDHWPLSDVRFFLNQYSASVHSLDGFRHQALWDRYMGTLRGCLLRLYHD
UniProt Q96SL8: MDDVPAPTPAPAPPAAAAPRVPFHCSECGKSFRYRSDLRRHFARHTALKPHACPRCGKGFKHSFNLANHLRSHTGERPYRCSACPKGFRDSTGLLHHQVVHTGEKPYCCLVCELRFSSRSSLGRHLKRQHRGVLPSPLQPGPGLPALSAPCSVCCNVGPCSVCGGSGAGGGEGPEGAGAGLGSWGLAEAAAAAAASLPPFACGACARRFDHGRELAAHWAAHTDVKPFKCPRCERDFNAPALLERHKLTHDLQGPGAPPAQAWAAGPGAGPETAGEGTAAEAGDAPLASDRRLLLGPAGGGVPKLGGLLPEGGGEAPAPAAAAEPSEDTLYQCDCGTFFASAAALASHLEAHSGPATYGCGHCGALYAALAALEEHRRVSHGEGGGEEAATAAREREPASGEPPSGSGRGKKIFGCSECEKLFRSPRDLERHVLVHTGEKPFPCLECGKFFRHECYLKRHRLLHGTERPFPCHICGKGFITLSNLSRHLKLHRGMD
UniProt P0C2W1: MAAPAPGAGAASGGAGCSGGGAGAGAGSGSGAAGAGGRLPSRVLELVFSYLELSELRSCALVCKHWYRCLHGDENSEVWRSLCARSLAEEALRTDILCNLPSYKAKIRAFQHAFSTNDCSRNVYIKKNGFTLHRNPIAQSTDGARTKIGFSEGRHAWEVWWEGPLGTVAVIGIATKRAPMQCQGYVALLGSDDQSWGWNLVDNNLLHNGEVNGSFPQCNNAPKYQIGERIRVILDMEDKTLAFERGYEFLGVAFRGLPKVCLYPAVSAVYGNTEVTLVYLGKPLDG
UniProt Q53R41: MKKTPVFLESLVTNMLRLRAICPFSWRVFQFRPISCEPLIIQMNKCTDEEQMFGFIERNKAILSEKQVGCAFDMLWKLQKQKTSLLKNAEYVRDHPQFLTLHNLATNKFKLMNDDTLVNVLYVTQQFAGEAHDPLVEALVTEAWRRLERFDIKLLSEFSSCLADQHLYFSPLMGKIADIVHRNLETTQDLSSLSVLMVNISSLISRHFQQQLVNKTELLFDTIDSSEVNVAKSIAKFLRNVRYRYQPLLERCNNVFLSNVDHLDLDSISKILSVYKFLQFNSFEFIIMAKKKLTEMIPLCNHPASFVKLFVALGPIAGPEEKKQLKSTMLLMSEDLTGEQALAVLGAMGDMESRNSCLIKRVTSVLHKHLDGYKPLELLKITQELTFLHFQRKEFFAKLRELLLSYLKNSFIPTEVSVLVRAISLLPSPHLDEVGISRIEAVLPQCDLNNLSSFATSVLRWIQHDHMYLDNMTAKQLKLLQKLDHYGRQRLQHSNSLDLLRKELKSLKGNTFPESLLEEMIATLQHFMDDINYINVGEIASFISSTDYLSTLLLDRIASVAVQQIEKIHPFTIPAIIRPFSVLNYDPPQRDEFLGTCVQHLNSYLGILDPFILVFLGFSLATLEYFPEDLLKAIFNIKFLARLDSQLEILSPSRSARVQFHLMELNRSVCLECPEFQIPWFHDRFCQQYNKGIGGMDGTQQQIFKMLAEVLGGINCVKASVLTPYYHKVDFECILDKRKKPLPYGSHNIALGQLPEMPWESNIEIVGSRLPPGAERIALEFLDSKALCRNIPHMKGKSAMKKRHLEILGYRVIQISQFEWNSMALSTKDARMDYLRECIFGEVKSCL
UniProt Q96AY3, whole entry, looked up: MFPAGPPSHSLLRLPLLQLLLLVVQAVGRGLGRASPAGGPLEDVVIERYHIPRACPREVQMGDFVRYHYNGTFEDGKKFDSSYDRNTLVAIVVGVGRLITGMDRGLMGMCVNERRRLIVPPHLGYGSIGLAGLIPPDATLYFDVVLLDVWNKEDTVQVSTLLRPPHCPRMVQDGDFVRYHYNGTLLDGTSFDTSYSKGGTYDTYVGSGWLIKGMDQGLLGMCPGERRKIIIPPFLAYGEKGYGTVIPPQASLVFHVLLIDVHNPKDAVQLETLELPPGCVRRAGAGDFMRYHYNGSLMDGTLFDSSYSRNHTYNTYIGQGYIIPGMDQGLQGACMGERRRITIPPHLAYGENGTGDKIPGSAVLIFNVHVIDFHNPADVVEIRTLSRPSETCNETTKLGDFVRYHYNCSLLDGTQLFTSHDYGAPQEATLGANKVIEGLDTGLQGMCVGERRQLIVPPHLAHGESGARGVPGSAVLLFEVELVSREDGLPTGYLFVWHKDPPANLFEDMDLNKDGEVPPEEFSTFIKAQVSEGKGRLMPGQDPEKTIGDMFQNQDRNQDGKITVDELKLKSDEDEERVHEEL
UniProt Q9UK97: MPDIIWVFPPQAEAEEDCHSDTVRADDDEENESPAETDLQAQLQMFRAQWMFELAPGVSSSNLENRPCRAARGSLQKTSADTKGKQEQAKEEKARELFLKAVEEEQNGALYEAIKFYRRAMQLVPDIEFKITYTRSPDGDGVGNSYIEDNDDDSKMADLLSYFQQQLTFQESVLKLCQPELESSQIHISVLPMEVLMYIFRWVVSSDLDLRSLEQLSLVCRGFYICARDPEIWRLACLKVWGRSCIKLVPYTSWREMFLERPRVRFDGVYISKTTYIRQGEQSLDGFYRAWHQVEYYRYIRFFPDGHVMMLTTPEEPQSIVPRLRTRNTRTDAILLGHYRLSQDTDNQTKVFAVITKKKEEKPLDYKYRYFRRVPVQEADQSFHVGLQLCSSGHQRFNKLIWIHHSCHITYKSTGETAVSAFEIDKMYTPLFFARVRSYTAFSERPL
UniProt Q6PJ61: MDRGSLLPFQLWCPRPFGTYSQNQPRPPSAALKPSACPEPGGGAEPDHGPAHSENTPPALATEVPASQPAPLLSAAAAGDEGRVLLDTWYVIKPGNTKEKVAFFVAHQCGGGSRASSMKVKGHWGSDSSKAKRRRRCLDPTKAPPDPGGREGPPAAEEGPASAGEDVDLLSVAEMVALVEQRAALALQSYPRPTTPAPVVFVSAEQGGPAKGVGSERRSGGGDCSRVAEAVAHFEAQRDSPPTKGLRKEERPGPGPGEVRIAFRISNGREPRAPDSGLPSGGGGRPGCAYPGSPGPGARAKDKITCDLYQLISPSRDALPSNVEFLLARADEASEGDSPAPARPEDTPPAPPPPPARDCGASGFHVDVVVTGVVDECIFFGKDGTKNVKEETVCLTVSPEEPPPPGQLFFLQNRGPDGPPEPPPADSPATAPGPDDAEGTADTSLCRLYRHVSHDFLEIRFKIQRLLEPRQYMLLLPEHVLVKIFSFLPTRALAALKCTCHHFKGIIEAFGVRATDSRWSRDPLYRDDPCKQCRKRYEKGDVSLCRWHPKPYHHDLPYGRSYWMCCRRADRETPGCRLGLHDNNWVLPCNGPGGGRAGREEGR
UniProt P23142: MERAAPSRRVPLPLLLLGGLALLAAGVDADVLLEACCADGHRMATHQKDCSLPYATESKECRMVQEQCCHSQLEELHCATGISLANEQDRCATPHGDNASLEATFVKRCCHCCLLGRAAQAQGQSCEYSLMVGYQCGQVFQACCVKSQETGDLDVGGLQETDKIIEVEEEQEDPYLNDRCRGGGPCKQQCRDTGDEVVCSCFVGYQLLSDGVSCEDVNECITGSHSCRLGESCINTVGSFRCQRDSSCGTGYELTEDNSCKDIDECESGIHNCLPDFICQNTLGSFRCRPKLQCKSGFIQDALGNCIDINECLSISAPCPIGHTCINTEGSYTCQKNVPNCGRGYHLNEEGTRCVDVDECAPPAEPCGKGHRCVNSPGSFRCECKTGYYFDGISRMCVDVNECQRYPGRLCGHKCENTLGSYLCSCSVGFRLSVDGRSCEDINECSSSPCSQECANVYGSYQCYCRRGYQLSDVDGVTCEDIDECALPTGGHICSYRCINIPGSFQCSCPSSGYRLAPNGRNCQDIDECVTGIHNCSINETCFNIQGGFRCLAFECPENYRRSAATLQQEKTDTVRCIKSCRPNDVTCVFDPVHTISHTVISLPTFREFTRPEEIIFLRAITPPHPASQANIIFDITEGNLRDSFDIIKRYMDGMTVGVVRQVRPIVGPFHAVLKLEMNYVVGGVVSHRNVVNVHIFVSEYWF
UniProt Q9NW38: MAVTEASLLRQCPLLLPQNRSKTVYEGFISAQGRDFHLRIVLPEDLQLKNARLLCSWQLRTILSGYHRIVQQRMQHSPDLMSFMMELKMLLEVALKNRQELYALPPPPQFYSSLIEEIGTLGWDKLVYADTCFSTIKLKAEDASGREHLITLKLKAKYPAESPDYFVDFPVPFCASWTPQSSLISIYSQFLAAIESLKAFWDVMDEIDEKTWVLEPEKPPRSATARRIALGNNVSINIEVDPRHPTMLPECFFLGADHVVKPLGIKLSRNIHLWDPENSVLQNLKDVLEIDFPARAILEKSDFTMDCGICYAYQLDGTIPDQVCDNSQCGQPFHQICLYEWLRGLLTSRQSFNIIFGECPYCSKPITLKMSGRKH

This is one part of the list.

Common to all, as to assay: log2 fold change, soluble protein after heating vs DMSO (PISA); higher = thermal stabilisation; K562 lysate, 10 uM; active = over 0.2 and 3.5 SD of the protein, either way, in both replicates (recomputed)
Compound in one test: CN1CC[C@H](c2c(O)cc(O)c3c(=O)cc(-c4ccccc4Cl)oc23)[C@H](O)C1 [alvocidib]
The method in brief: (§1)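 To prepare the extract, K562 pellets were dounce-homogenised in PBS pH 7.4 with 1 mM MgCl2, giving crude material at 1 mg/mL protein. This was treated with 10 μM compound for 30 min, then heated in aliquots for 3 min over 48°C-58°C before pooling and addition of NP-40 to 0.5% at 4°C. Centrifugation at 21,000xg for 90 min left soluble protein in the supernatant, which TMTpro 16plex LC-MS/MS quantified with equalised channel sums. Results are log-two fold changes in thermal stability compared with solvent controls, from duplicates.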

Compound in a further test: CN1CCc2c(c3ccccc3n2Cc2ccc(C(=O)NO)cc2)C1 [Tubastatin A]
The gist of the method:
as §1

Compound in test [1]: CNC(=O)C1=CC=CC=C1NC2=NC(=NC=C2Cl)NC3=C(C=C(C=C3)N4CCOCC4)OC
The gist of the method: as §1

Compound in test [2]: CNc1nc(-c2ccc3c(N)n[nH]c3c2)cc(N2C[C@@H](C(=O)NC3CCCCC3)CC[C@H]2C)n1
The method in brief:
as §1

Compound in another test: COC(=O)N[C@@H](C)CNc1nccc(-c2cn(C(C)C)nc2-c2cc(Cl)cc(NS(C)(=O)=O)c2F)n1 [encorafenib]
The method in brief:
as §1

Compound in test [3]: COC(=O)[C@H](CCSC)NC(=O)C1=C(C=C(C=C1)NC[C@H](CS)N)C2=CC=CC=C2
The method in brief: as §1

Compound in another test: COc1cc(Nc2ncc3c(n2)-c2ccc(Cl)cc2C(c2c(F)cccc2OC)=NC3)ccc1C(=O)O [alisertib]
The gist of the method: as §1

Compound in test [4]: COc1cc2nc(-c3cc(F)ccc3O)nc(N[C@@H]3CNC[C@H]3C(C)(C)O)c2cc1OC
The method in brief: as §1

Compound in another test: COc1cc2ncnc(Nc3ccc(F)c(Cl)c3)c2cc1OCCCN1CCOCC1 [gefitinib]
The gist of the method:
as §1

Compound in another test: CNC(=O)c1ccc(Nc2ncc(C(F)(F)F)c(NCc3nccnc3N(C)S(C)(=O)=O)n2)cc1 [defactinib]
The gist of the method: as §1

Turning to FGF13 isoform 3 (UniProt Q92913), the log2 fold change is inactive: -0.079 with alvocidib; inactive: 0.046 with Tubastatin A; inactive: 0.073 in test [1]; inactive: 0.034 in test [2]; inactive: -0.071 with encorafenib; inactive: 0.056 in test [3]. For the same target, the log2 fold change with alisertib is inactive: -0.028; in [4] it was inactive: -0.027; in the test with gefitinib it was inactive: -0.005.

FMC1 (UniProt Q96HJ9): the log2 fold change with alvocidib is inactive: 0.036; with Tubastatin A, inactive: -0.034; in test [1], inactive: -0.018; with defactinib it was inactive: -0.11; in test [2] it was inactive: -0.005; with encorafenib, inactive: 0.163. Besides, the figures for the log2 fold change in [3] and in test [4] were inactive: -0.071 and inactive: -0.063, respectively.

For FIBP (UniProt O43427), the log2 fold change in the test with alvocidib is inactive: 0.03; with Tubastatin A, inactive: 0.003; in test [1], inactive: 0.05; with defactinib, inactive: 0.1; in test [2], inactive: -0.079; with encorafenib, inactive: 0.036. Further, the log2 fold change is inactive: 0.094 in [3], inactive: 0.012 with alisertib, inactive: 0.002 in [4] and inactive: -0.005 with gefitinib.

Regarding FIZ1 (UniProt Q96SL8), the log2 fold change was inactive: 0.017 with alvocidib; inactive: -0.129 in the test with Tubastatin A; inactive: 0.012 in the test with alisertib; inactive: 0.038 in [4]; inactive: -0.058 with gefitinib.

Turning to FBXO45 (UniProt P0C2W1), the log2 fold change in the test with alvocidib is inactive: -0.047; with Tubastatin A, inactive: -0.162; in test [1] it was inactive: -0.035; in the test with defactinib, inactive: -0.009; with encorafenib, inactive: -0.062; in [3], inactive: -0.035. In addition, the log2 fold change with alisertib is inactive: 0.003; in [4] it was inactive: 0.02; with gefitinib, inactive: -0.002.

Consider FASTKD1 (UniProt Q53R41), for which the log2 fold change was inactive: -0.088 with alvocidib; inactive: -0.157 with Tubastatin A; inactive: 0.034 in test [1]; inactive: -0.002 with defactinib; inactive: -0.06 in test [2]; inactive: -0.003 with encorafenib. In addition, the log2 fold change in [3] was inactive: 0.056; with alisertib it was inactive: -0.001; with gefitinib it was inactive: 0.066.

As to FKBP10 (UniProt Q96AY3), the log2 fold change with alvocidib was inactive: 0.023; with Tubastatin A, inactive: -0.052; in test [2] it was inactive: 0.131; with encorafenib it was inactive: 0.044; in test [3], inactive: 0.013; with alisertib it was inactive: 0.065. The log2 fold change in the test with gefitinib was inactive: 0.182.

For the target FBRSL1, A0A3B3IRR3, the log2 fold change in the test with alvocidib is inactive: -0.051; with Tubastatin A, inactive: -0.004; in test [1], inactive: -0.074; with defactinib, inactive: -0.002; in [2], inactive: 0.008; with encorafenib, inactive: 0.021. Also, the log2 fold change in test [3] was inactive: -0.03; with alisertib it was inactive: -0.018; with gefitinib, inactive: 0.014.

FBXO9 (UniProt Q9UK97): the log2 fold change with alvocidib is inactive: 0.099; in the test with Tubastatin A, inactive: -0.006; in test [1] it was inactive: -0.015; in the test with defactinib, inactive: 0.104; in test [2] it was inactive: 0.037; with encorafenib, inactive: 0.078. The log2 fold change in [3] is inactive: -0.042; in the test with alisertib it was inactive: -0.011; in test [4], active: -0.402; in the test with gefitinib, inactive: 0.04.

With FBXO46 (UniProt Q6PJ61), the log2 fold change with alvocidib was inactive: 0.017; with Tubastatin A, inactive: -0.073; in the test with defactinib, inactive: -0.078; in test [2], inactive: -0.076; in the test with encorafenib, inactive: 0.045; in test [3], inactive: 0.089. Also, the results for the log2 fold change (in the test with alisertib; in test [4]; with gefitinib) were inactive: 0.033, inactive: 0.071 and inactive: -0.034, respectively.

Regarding FBLN1 (UniProt P23142), the log2 fold change with alvocidib is inactive: -0.162; in the test with Tubastatin A it was inactive: -0.053; with defactinib it was inactive: 0.094; in the test with alisertib it was inactive: 0.104; in the test with gefitinib, inactive: 0.107.

Take FANCL isoform 2 (UniProt Q9NW38): the log2 fold change in the test with alvocidib is inactive: 0.036; with Tubastatin A, inactive: -0.159; in test [1] it was inactive: 0.016; in [2], inactive: -0.007; with encorafenib it was inactive: -0.136; in test [3] it was inactive: -0.144. For the same target, the values for the log2 fold change (with alisertib; in [4]; with gefitinib) were inactive: -0.069, inactive: -0.081 and inactive: -0.169, respectively.
